PubChem BioAssay AID1053208, Peter MacCallum Cancer Centre, 2014
The deposit covers about 17,000 reagents; this is an unselected part. 788 of all reagents (4.7%) were called active. 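Calls rest on z-score classes alone; an extra cut-off of viability at most 70% of control was not applied to them.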 Not all columns of the deposit are shown.

- Assay: 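Genes whose silencing cuts survival of bone tumour cells only with doxorubicin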 (primary screen)
- Cells: mouse osteosarcoma cells, early-passage culture from an engineered mouse model of fibroblastic bone tumour
- Knock-down reagent: siRNA pool against mouse genes, 40 nM
- Timing: about 120 h (48 h before drug, then 72 h with drug)
- Challenge: doxorubicin 100 nM for 72 h, roughly 30-40% inhibitory dose
- Detection: 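Viability read as ATP luminescence after 72 h of 100 nM doxorubicin or none, duplicate wells averaged, scaled to non-targeting siRNA, then expressed as robust z-scores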
- Direction: viability z-score with doxorubicin: higher = more viable cells under doxorubicin; viability z-score without drug: higher = more viable cells with knock-down alone
- Call rule: 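a pool counts as active when its viability z-score with doxorubicin is -2 or below and its z-score without drug lies between -2 and 2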

For 1810043J12RIK, the values are combined z-score class low cell count with doxorubicin only; viability z-score with doxorubicin -2.7; viability z-score without drug 0.17; active. After knock-down of Ubap1 the results were combined z-score class no change with or without drug; viability z-score with doxorubicin -0.79; viability z-score without drug -1.18; inactive. Prtg gave combined z-score class low cell count with and without drug; viability z-score with doxorubicin -3.15; viability z-score without drug -4.55; inactive. With knock-down of Osbpl8, the record shows combined z-score class no change with or without drug; viability z-score with doxorubicin -1.8; viability z-score without drug -1.01; inactive. Against Map2k2, the values are combined z-score class no change with or without drug; viability z-score with doxorubicin -0.56; viability z-score without drug 0.84; inactive. For Nr4a1 the deposit lists combined z-score class no change with or without drug; viability z-score with doxorubicin -0.45; viability z-score without drug 0.17; inactive.

After knock-down of Luzp2 the results were combined z-score class no change with or without drug; viability z-score with doxorubicin 0.56; viability z-score without drug -0.17; inactive. For Psmd12 the deposit lists combined z-score class low cell count with and without drug; viability z-score with doxorubicin -5.51; viability z-score without drug -6.58; inactive. Against Slc25a22 the deposit lists combined z-score class no change with or without drug; viability z-score with doxorubicin 0.67; viability z-score without drug -0.17; inactive. Silencing of Il31ra gave: combined z-score class no change with or without drug; viability z-score with doxorubicin -0.45; viability z-score without drug -1.18; inactive. Knock-down of Or11g26 came out at: combined z-score class no change with or without drug; viability z-score with doxorubicin -0.45; viability z-score without drug 1.18; inactive. With knock-down of Myc the results were combined z-score class no change with or without drug; viability z-score with doxorubicin -0.34; viability z-score without drug 0.17; inactive.

Against Krtap16-3, the values are combined z-score class no change with or without drug; viability z-score with doxorubicin -1.8; viability z-score without drug -1.18; inactive. Against Cct8, the values are combined z-score class low cell count without drug only; viability z-score with doxorubicin -1.69; viability z-score without drug -3.71; inactive. With knock-down of Chic2, the screen gave combined z-score class no change with or without drug; viability z-score with doxorubicin 0.22; viability z-score without drug 0.17; inactive. After knock-down of Kif6, the record shows combined z-score class no change with or without drug; viability z-score with doxorubicin -1.24; viability z-score without drug -0.84; inactive. Ptrh1 scored combined z-score class no change with or without drug; viability z-score with doxorubicin -0.67; viability z-score without drug 1.01; inactive. Knock-down of Sh3bp5l gave: combined z-score class no change with or without drug; viability z-score with doxorubicin 0.11; viability z-score without drug 0.34; inactive.

For Esr2, the values are combined z-score class high cell count without drug only; viability z-score with doxorubicin 0.56; viability z-score without drug 2.02; inactive.
